Article PMC11139886
No constants are given. Whether binding was seen depends on the method and setting. In cells and extracts the contact can be indirect. Some results given as binding are weak or reduced against the parent protein; the word gives no strength.

Protein sequences, listed by entry. Tags and fused reporters are not part of them. Lines headed by an entry give the natural chain unless they say otherwise; changes in a name come on top.
UniProt P45973: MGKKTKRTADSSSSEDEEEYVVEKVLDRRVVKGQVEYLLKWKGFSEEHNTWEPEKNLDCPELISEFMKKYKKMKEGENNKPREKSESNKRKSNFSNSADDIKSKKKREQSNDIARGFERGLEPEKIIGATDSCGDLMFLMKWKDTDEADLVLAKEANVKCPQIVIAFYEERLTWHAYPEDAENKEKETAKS
UniProt P68400: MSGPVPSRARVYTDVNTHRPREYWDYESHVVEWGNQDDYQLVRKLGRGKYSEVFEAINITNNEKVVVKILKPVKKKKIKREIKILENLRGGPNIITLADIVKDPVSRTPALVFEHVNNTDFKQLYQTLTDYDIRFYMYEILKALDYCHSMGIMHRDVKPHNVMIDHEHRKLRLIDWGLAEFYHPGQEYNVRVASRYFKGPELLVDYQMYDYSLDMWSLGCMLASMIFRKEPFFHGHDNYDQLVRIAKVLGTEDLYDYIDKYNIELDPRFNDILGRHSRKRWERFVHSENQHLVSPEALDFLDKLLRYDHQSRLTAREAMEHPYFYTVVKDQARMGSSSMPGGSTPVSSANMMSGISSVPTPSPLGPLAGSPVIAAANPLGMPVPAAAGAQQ

How the values were obtained:
[1] = biological target: heterochromatin protein 1α (HP1α), FLAG-tagged, wild type (UniProt P45973); assay: co-IP; HP1α (wild type or T50A) with CK2α; shown only in Supplementary Fig. S5D, details not shown
[2] = biological target: heterochromatin protein 1α (HP1α) T50A, FLAG-tagged (UniProt P45973); assay: as above

casein kinase 2 α (CK2α), HA-tagged (from UniProt P68400 1-391) (enzyme)
binding [1]: binds | binding [2]: binds
